The list shows a part of the results. Residues, ends and D or L forms follow the SMILES beside them. *: point of attachment. Cbz = O=C(OCc1ccccc1)*
Experiments:
Test in all cases: log2 fold change, soluble protein after heating vs DMSO (PISA); higher = thermal stabilisation; K562 cells, 10 uM, 30 min; active = over 0.2 and 3.5 SD of the protein, either way, in both replicates (recomputed)
erlotinib = compound: C#Cc1cccc(Nc2ncnc3cc(OCCOC)c(OCCOC)cc23)c1 [erlotinib]
Method in brief: (§1)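 Thermal stability values are relative to control samples and come from duplicates. They are expressed as log2 fold changes. For measurement, K562 cells (2×10^6 cells/mL) received 10 μM compound for 30 min, and aliquots were heated for 3 min over 48°C-58°C, pooled, and extracted at 4°C in PBS with 0.5% NP-40. Soluble protein, the supernatant after 21,000xg for 90 min, was quantified by TMTpro 16plex LC-MS/MS with equalised channel sums.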

Sequences of proteins named here, by UniProt entry; tags and fusion partners are left off. A change or cut given only in a name is not applied to a line headed by its entry.
UniProt Q9H000: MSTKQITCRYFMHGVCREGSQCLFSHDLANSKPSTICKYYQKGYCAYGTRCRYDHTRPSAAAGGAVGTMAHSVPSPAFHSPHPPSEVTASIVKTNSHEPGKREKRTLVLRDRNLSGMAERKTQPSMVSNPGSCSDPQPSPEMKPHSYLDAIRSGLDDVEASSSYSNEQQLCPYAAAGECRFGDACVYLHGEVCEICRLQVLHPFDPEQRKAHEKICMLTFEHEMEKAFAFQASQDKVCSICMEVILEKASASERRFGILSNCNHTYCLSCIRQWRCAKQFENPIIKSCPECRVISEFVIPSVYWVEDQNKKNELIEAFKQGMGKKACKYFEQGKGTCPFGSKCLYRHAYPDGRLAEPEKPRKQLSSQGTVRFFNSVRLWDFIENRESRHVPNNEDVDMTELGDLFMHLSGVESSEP
UniProt Q9BUB5: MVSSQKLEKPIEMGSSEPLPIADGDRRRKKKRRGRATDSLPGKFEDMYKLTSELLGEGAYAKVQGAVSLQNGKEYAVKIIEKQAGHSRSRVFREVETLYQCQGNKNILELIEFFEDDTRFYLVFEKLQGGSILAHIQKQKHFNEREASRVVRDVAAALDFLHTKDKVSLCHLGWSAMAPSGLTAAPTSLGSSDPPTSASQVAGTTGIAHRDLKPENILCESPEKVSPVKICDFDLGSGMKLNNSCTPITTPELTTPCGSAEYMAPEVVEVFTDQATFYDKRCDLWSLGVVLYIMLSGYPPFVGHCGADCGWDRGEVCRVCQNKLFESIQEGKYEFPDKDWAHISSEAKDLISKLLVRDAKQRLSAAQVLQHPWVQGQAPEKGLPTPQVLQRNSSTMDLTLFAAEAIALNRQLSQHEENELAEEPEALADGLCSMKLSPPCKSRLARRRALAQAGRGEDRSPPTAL
UniProt Q9UH92: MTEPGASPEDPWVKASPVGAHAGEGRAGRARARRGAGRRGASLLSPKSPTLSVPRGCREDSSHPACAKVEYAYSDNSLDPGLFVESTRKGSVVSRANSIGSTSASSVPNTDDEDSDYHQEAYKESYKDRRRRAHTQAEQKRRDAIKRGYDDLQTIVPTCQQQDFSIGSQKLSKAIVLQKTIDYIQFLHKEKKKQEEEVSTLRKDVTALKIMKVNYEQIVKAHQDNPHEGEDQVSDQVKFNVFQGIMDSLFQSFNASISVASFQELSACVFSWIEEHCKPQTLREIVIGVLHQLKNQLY
UniProt Q9UNW1: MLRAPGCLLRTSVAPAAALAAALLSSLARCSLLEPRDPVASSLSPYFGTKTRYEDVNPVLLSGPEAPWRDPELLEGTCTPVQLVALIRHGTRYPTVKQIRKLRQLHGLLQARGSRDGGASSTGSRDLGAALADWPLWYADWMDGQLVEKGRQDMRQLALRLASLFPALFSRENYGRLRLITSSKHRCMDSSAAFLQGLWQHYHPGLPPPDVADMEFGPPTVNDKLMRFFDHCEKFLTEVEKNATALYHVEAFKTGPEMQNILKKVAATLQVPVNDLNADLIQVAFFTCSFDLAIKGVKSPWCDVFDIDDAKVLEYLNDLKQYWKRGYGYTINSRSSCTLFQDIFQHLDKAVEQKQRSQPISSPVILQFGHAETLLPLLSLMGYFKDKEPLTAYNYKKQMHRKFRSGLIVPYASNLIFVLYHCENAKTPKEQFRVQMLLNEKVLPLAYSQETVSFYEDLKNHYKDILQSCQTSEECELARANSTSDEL
UniProt Q9HCE1: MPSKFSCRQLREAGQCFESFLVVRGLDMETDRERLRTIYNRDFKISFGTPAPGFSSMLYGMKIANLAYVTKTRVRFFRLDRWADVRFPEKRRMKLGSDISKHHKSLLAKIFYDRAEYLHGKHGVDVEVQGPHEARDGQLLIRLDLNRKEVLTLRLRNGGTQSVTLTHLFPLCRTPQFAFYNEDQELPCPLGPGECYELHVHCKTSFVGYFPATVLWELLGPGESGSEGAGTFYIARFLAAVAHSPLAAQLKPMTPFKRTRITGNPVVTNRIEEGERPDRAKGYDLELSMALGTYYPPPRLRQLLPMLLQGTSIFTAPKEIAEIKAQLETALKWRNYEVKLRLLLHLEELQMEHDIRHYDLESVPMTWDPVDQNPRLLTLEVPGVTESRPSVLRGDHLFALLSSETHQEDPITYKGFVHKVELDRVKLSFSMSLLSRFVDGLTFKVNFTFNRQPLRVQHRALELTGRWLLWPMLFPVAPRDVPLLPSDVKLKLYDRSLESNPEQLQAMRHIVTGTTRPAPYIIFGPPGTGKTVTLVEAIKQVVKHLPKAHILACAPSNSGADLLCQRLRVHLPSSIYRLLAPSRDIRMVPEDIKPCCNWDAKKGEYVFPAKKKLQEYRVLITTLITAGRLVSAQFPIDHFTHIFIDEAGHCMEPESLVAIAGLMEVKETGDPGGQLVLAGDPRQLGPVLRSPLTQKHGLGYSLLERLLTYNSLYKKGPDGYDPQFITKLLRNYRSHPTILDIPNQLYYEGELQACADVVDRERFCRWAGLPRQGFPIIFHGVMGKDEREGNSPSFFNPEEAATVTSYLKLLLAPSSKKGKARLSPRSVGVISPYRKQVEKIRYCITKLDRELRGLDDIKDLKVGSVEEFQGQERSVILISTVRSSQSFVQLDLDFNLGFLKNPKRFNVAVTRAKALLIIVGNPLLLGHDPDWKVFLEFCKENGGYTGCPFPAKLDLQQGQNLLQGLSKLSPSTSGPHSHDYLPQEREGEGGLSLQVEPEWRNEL
UniProt P39210: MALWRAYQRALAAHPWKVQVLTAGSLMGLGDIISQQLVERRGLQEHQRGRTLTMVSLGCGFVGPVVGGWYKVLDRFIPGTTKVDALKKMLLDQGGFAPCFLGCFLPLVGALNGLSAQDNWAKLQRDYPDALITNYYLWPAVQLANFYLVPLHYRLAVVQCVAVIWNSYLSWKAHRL
UniProt Q9H081: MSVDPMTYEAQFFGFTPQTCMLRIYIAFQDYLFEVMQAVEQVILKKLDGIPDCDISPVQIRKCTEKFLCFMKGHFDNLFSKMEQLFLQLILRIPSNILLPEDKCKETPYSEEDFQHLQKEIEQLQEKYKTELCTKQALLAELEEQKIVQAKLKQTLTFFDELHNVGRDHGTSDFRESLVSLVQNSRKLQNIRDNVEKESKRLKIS
UniProt Q9BWT6: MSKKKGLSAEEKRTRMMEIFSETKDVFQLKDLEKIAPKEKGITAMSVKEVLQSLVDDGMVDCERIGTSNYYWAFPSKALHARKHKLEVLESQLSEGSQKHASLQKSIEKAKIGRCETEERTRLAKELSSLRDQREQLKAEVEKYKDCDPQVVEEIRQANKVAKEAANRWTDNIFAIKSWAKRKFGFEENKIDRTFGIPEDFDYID
UniProt Q8IYU8: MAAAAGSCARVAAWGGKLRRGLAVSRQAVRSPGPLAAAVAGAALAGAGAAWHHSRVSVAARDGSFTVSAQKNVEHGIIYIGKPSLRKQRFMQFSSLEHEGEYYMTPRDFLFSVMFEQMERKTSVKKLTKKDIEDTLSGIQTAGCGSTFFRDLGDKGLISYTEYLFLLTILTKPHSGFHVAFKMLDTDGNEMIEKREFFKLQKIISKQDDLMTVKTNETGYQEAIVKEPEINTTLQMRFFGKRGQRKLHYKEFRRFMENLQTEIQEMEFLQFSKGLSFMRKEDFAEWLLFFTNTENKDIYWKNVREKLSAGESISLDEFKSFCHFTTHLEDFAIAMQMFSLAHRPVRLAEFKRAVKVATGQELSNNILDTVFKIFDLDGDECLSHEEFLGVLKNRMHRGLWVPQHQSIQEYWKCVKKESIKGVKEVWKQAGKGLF
UniProt P25325: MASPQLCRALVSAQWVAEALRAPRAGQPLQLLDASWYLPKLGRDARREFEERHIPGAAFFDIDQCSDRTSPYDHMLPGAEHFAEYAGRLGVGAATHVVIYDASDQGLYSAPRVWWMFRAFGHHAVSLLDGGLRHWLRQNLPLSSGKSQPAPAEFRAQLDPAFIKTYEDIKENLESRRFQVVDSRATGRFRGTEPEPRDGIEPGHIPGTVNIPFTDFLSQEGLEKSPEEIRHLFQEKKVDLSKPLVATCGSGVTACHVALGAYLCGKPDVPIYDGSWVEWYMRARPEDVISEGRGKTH
UniProt Q6WCQ1: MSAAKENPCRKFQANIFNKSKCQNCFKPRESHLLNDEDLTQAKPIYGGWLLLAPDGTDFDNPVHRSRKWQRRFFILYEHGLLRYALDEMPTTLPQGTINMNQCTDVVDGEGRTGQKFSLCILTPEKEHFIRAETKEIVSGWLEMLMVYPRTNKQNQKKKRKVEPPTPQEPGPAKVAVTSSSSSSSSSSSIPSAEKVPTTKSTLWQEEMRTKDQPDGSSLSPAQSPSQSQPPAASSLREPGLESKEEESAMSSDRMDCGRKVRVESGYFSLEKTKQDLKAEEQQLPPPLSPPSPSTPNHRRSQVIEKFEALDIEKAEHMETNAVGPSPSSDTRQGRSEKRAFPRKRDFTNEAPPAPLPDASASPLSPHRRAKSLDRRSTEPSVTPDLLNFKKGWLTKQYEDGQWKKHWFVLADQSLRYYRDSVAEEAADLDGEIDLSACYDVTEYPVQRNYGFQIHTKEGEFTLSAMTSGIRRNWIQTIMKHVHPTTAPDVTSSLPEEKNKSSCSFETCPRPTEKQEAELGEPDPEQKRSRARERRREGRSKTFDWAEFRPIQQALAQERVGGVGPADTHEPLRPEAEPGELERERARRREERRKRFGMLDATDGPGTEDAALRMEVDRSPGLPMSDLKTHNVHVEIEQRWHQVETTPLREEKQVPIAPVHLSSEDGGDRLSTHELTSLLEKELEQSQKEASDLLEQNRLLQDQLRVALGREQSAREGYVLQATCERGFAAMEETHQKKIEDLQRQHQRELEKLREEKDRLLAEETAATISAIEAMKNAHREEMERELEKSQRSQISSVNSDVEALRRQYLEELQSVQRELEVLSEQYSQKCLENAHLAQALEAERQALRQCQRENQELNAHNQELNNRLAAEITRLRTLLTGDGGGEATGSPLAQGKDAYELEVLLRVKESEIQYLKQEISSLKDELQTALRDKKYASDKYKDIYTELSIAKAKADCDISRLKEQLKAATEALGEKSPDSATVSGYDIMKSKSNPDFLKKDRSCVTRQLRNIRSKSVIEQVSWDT
UniProt Q8WV92, whole entry, looked up: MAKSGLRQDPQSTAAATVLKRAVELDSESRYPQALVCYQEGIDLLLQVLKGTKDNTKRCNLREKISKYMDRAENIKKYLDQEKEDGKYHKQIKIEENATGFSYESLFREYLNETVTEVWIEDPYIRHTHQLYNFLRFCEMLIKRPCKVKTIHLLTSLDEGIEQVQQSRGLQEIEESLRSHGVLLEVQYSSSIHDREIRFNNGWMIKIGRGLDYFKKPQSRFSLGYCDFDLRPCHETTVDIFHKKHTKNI
UniProt Q96T76: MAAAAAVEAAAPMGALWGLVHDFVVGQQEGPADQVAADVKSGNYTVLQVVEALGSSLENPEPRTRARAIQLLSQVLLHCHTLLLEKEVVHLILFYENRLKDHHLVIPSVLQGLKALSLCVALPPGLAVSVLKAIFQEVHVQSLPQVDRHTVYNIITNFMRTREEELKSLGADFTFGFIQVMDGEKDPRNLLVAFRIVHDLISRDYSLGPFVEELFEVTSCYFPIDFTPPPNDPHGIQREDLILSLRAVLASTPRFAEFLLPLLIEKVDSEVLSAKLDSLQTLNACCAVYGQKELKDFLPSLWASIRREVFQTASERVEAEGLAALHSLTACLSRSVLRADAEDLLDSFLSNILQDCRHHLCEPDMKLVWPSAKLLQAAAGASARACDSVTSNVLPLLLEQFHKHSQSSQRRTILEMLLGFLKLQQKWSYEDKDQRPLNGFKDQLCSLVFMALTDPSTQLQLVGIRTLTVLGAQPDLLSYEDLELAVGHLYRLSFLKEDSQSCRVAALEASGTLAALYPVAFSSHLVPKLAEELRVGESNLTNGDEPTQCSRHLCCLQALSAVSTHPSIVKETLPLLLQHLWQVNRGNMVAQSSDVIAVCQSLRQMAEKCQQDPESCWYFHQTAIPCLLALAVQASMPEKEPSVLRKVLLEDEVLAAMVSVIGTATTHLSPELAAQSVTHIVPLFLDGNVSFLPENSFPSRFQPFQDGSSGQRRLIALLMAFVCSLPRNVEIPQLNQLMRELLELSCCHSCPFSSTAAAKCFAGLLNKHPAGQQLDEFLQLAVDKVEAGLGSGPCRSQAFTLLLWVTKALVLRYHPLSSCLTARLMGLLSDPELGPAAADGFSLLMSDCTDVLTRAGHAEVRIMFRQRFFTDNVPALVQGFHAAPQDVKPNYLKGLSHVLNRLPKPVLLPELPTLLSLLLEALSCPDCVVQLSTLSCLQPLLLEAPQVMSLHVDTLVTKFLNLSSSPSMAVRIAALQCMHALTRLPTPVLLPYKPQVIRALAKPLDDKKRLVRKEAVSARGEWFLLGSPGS

[1] = compound: C/C(=N\NC(=O)C1=CC(=CC=C1)S(=O)(=O)N2CCOCC2)/C3=C(C=CC(=C3)Cl)O
Method in brief: as §1

[2] = compound: C1=CC(=C(C=C1Cl)C2=NC3=NC=CN=C3C(=N2)NC4=CC=NC=C4)F
Method in brief: as §1

[3] = compound: C1=CC(=CC=C1C2=NC3=C(N2)C=C(C=C3)C(=O)N)OC4=CC=C(C=C4)Cl
Method in brief: as §1

[4] = compound: C1=CC2=C(C=CC(=C2)/C=C\3/C(=O)NC(=NCC4=CC=CS4)S3)N=C1
Method in brief: as §1

[5] = compound: C1=CC2=NC=CN=C2C=C1/C=C/3\C(=O)NC(=O)S3
Method in brief: as §1

[6] = compound: C1=CC=C(C=C1)C2=NC(=C(N2)C3=CC=NC=C3)C4=CC(=C(C=C4)Cl)O
Method in brief: as §1

[7] = compound: C1=CC=C2C(=C1)C3=NNC4=CC=CC(=C43)C2=O
Method in brief: as §1

[8] = compound: C1CCN(C1)C(=O)NC2=CC=CC(=C2)NC3=NC=C(C(=N3)NCCC4=CN=CN4)Br
Method in brief: as §1

[9] = compound: C1CN(CCC1(CC2=CC=C(C=C2)Cl)N)C3=NC=NC4=C3C=CN4
Method in brief: as §1

IRAK-1-4 Inhibitor I = compound: C1COCCN1CCN2C3=CC=CC=C3N=C2NC(=O)C4=CC(=CC=C4)[N+](=O)[O-] [IRAK-1-4 Inhibitor I]
Method in brief: as §1

ibrutinib = compound: C=CC(=O)N1CCC[C@@H](n2nc(-c3ccc(Oc4ccccc4)cc3)c3c(N)ncnc32)C1 [ibrutinib]
Method in brief: as §1

[10] = compound: CC(=O)c1cnc2ccc(-c3cc(Cl)c(O)c(Cl)c3)nc2c1N[C@H]1CC[C@H](CN(C)C)CC1
Method in brief: as §1

ralimetinib = compound: CC(C)(C)Cn1c(N)nc2ccc(-c3[nH]c(C(C)(C)C)nc3-c3ccc(F)cc3)nc21 [ralimetinib]
Method in brief: as §1

[11] = compound: CC(C)(O)CC(=O)NCCn1ccc2ncnc(Nc3ccc(Oc4cccc(C(F)(F)F)c4)c(Cl)c3)c21
Method in brief: as §1

[12] = compound: CC(C)C1=C2N=C(C=C(N2N=C1)NCC3=CC=CC=C3)NCCCCCCN
Method in brief: as §1

[13] = compound: CC(C)C[C@@H](C=O)NC(=O)[C@H](CC(C)C)NC(=O)[C@H](CC(C)C)NC(=O)OCc1ccccc1
Method in brief: as §1

pinometostat = compound: CC(C)N(C[C@H]1O[C@@H](n2cnc3c(N)ncnc32)[C@H](O)[C@@H]1O)[C@H]1C[C@@H](CCc2nc3cc(C(C)(C)C)ccc3[nH]2)C1 [pinometostat]
Method in brief: as §1

[14] = compound: CC1=C(C2=C(C=C1)C(=O)C3=CC=CC=C3N2CCCN)C
Method in brief: as §1

[15] = compound: CC1=C(C(CC(=O)N1)C2=CC=C(C=C2)C(F)(F)F)C(=O)NC3=C(C=C4C(=C3)C=NN4)F
Method in brief: as §1

Target | log2 fold change (erlotinib) | log2 fold change [1] | log2 fold change [2] | log2 fold change [3] | log2 fold change [4] | log2 fold change [5] | log2 fold change [6] | log2 fold change [7] | log2 fold change [8] | log2 fold change [9] | log2 fold change (IRAK-1-4 Inhibitor I) | log2 fold change (ibrutinib) | log2 fold change [10] | log2 fold change (ralimetinib) | log2 fold change [11] | log2 fold change [12] | log2 fold change [13] | log2 fold change (pinometostat) | log2 fold change [14] | log2 fold change [15]
MKRN2 (UniProt Q9H000) | inactive: -0.038 | inactive: 0.057 | inactive: -0.16 | inactive: 0.013 | inactive: -0.058 | inactive: 0.002 | inactive: -0.011 | inactive: -0.052 | inactive: -0.085 | inactive: 0.061 | inactive: -0.063 | inactive: 0.026 | inactive: -0.137 | inactive: 0.034 | inactive: 0.017 | inactive: 0.032 | inactive: 0.089 | inactive: 0.094 | inactive: -0.064 | 
MKNK1 (UniProt Q9BUB5) | active: 0.305 | inactive: 0.09 | inactive: -0.05 | inactive: 0 | inactive: 0.011 | inactive: 0.081 | inactive: -0.028 | inactive: 0.001 | inactive: -0.051 | inactive: -0.066 | inactive: -0.078 | inactive: -0.034 | inactive: 0.059 | inactive: 0.117 | inactive: -0.032 | inactive: -0.065 | inactive: 0.168 | inactive: -0.019 | inactive: 0.057 | 
MLX (UniProt Q9UH92) | inactive: 0.038 | inactive: 0.135 | inactive: -0.057 | inactive: 0.062 | inactive: 0.032 | inactive: -0.094 | inactive: -0.041 | inactive: -0.076 | inactive: -0.012 | inactive: -0.143 | inactive: -0.033 | inactive: -0.058 | inactive: -0.132 | inactive: 0.077 | inactive: -0.163 | inactive: -0.236 | inactive: 0.14 | inactive: 0.016 | inactive: -0.008 | 
MINPP1 (UniProt Q9UNW1) | inactive: -0.057 | inactive: 0.003 | inactive: -0.001 | inactive: 0.039 | inactive: 0.004 | inactive: 0.055 | inactive: -0.02 | inactive: -0.039 | inactive: 0.002 | inactive: -0.012 | inactive: 0.049 | inactive: -0.003 | inactive: -0.016 | inactive: -0.04 | inactive: 0.007 | inactive: 0.061 | inactive: -0.011 | inactive: -0.024 | inactive: -0.029 | inactive: 0.007
MOV10 (UniProt Q9HCE1) | inactive: -0.103 | inactive: -0.062 | inactive: -0.242 | inactive: 0.026 | inactive: -0.002 | inactive: 0.049 | inactive: -0.049 | inactive: -0.054 | inactive: 0.04 | inactive: -0.158 | inactive: -0.135 | inactive: 0.002 | inactive: 0.069 | inactive: 0.12 | inactive: 0.082 | inactive: 0.02 | inactive: 0.033 | inactive: 0.163 | inactive: -0.305 | 
MRPL47 (UniProt Q9HD33) | inactive: -0.189 | inactive: -0.107 | inactive: -0.098 | inactive: 0.096 | inactive: -0.002 | inactive: -0.047 | inactive: -0.012 | inactive: 0.094 | inactive: -0.004 | inactive: -0.273 | inactive: -0.11 | inactive: 0.022 | inactive: 0.003 | inactive: 0.056 | inactive: 0.016 | inactive: -0.001 | inactive: 0.071 | inactive: 0.181 | inactive: -0.083 | 
MPV17 (UniProt P39210) | inactive: 0.071 | inactive: 0.069 | inactive: 0.128 | inactive: -0.162 | inactive: 0.11 | inactive: 0.005 | inactive: 0.069 | inactive: 0.025 | inactive: 0.012 | inactive: -0.009 |  | inactive: -0.023 | inactive: -0.038 | inactive: 0.008 | inactive: -0.127 | inactive: -0.088 | inactive: -0.097 |  | inactive: 0.103 | inactive: -0.009
MIS12 (UniProt Q9H081) | inactive: 0.103 | inactive: 0.083 | inactive: 0.012 | inactive: 0.002 | inactive: 0.107 | inactive: 0.052 | inactive: -0.063 | inactive: -0.018 | inactive: -0.16 | inactive: -0.016 | inactive: 0.024 | inactive: 0.026 | inactive: -0.025 | inactive: -0.004 | inactive: -0.151 | inactive: -0.087 | inactive: 0.06 | inactive: 0.006 | inactive: -0.035 | 
MND1 (UniProt Q9BWT6) | inactive: -0.068 | inactive: 0.034 | inactive: -0.003 | inactive: -0.002 | inactive: -0.011 | inactive: 0.015 | inactive: -0.019 | inactive: 0.009 | inactive: -0.081 | inactive: -0.017 | inactive: -0.022 | inactive: 0.069 | inactive: -0.053 | inactive: 0.052 | inactive: 0.008 | inactive: -0.182 | inactive: 0.173 | inactive: 0.076 | inactive: 0.043 | 
MICU1 isoform 3 (UniProt Q9BPX6) | inactive: -0.02 | inactive: -0.026 | inactive: -0.022 | inactive: 0.002 | inactive: -0.009 | inactive: 0.007 | inactive: -0.054 | inactive: 0.008 | inactive: 0.013 | inactive: -0.015 | inactive: 0 | inactive: -0.009 | inactive: -0.025 | inactive: 0.007 | inactive: -0.016 | active: -0.285 | inactive: 0.08 | inactive: 0.076 | inactive: 0.09 | 
MICU2 (UniProt Q8IYU8) | inactive: -0.013 | inactive: -0.013 | inactive: -0.06 | inactive: -0.002 | inactive: -0.038 | inactive: -0.015 | inactive: 0.103 | inactive: 0.018 | inactive: 0.045 | inactive: -0.042 | inactive: -0.039 | inactive: -0.001 | inactive: -0.026 | inactive: -0.05 | inactive: -0.12 | inactive: -0.292 | inactive: 0.128 | inactive: 0.211 | inactive: 0.136 | 
MPST isoform 2 (UniProt P25325) | inactive: 0.001 | inactive: 0.027 | inactive: 0.042 | inactive: -0.065 | inactive: 0.095 | inactive: -0.023 | inactive: 0.026 | inactive: 0.024 | inactive: -0.006 | inactive: -0.01 | inactive: 0.198 | inactive: -0.03 | inactive: -0.031 | inactive: -0.007 | inactive: 0.009 | inactive: 0.044 | inactive: 0.04 | inactive: -0.065 | inactive: 0.085 | inactive: -0.083
MRPL46 (UniProt Q9H2W6) | inactive: -0.025 | inactive: -0.008 | inactive: 0 | inactive: 0.011 | inactive: -0.054 | inactive: -0.001 | inactive: 0.046 | inactive: 0.164 | inactive: -0.031 | inactive: -0.075 | inactive: -0.069 | inactive: -0.012 | inactive: 0.077 | inactive: 0.029 | inactive: -0.008 | inactive: -0.073 | inactive: 0.064 | inactive: 0.03 | inactive: -0.026 | 
MPRIP isoform 2 (UniProt Q6WCQ1) | inactive: 0.027 | inactive: -0.018 | inactive: 0 | inactive: 0.041 | inactive: 0.052 | inactive: 0.103 | inactive: -0.084 | inactive: -0.018 | inactive: 0.002 | inactive: -0.196 | inactive: 0.125 | inactive: -0.068 | inactive: -0.146 | inactive: 0.014 | inactive: 0.119 | inactive: -0.033 | inactive: 0.083 | inactive: 0.168 | inactive: 0.109 | inactive: -0.04
MITD1 (UniProt Q8WV92) | inactive: 0.011 | inactive: -0.009 | inactive: 0.148 | inactive: 0.037 | inactive: 0.044 | inactive: 0.036 | inactive: -0.015 | inactive: 0.101 | inactive: 0.03 | inactive: -0.024 | inactive: -0.043 | inactive: 0.03 | inactive: 0 | inactive: -0.002 | inactive: -0.296 | active: -0.77 | inactive: -0.002 | inactive: 0.082 | inactive: 0.047 | 
MORC3 (UniProt Q14149) | inactive: 0.022 | inactive: 0.084 | inactive: 0.171 | inactive: 0.035 | inactive: -0.024 | inactive: 0.068 | inactive: 0.012 | inactive: 0.014 | inactive: -0.026 | inactive: -0.162 | inactive: 0.021 | inactive: -0.047 | inactive: 0.023 | inactive: -0.024 | inactive: -0.122 | inactive: -0.051 | inactive: 0.002 | inactive: -0.026 | active: 0.595 | 
MMS19 isoform 8 (UniProt Q96T76) | inactive: -0.01 | inactive: 0.001 | inactive: 0.044 | inactive: -0.025 | inactive: 0.113 | inactive: 0.053 | inactive: 0.05 | inactive: 0.016 | inactive: -0.01 | inactive: -0.01 | inactive: -0.141 | inactive: -0.029 | inactive: -0.028 | inactive: 0.078 | inactive: -0.082 | inactive: -0.216 | inactive: 0.006 | inactive: 0.084 | inactive: 0.011 | 

A stretch of the results above, as a working copy:
Target | log2 fold change (erlotinib) | log2 fold change [1] | log2 fold change [2] | log2 fold change [3] | log2 fold change [4] | log2 fold change [5] | log2 fold change [6] | log2 fold change [7] | log2 fold change [8] | log2 fold change [9] | log2 fold change (IRAK-1-4 Inhibitor I) | log2 fold change (ibrutinib) | log2 fold change [10] | log2 fold change (ralimetinib) | log2 fold change [11] | log2 fold change [12] | log2 fold change [13] | log2 fold change (pinometostat) | log2 fold change [14] | log2 fold change [15]
MND1 (UniProt Q9BWT6) | inactive: -0.068 | inactive: 0.034 | inactive: -0.003 | inactive: -0.002 | inactive: -0.011 | inactive: 0.015 | inactive: -0.019 | inactive: 0.009 | inactive: -0.081 | inactive: -0.017 | inactive: -0.022 | inactive: 0.069 | inactive: -0.053 | inactive: 0.052 | inactive: 0.008 | inactive: -0.182 | inactive: 0.173 | inactive: 0.076 | inactive: 0.043 | 
MICU1 isoform 3 (UniProt Q9BPX6) | inactive: -0.02 | inactive: -0.026 | inactive: -0.022 | inactive: 0.002 | inactive: -0.009 | inactive: 0.007 | inactive: -0.054 | inactive: 0.008 | inactive: 0.013 | inactive: -0.015 | inactive: 0 | inactive: -0.009 | inactive: -0.025 | inactive: 0.007 | inactive: -0.016 | active: -0.285 | inactive: 0.08 | inactive: 0.076 | inactive: 0.09 | 
